# According to patent publication US11584800B2 (DAIICHI SANKYO COMPANY, LIMITED, priority 2014, dated 2023):
# Experiment: general procedure: solution-phase peptide synthesis; N-hydroxysuccinimide / 1-ethyl-3-(3-dimethylaminopropyl)carbodiimide hydrochlori
# Details: for step yield: late stage modification step; for conjugation yield: conjugation step
# [1] = trifluoroacetate (deprotected intermediates)
Substance,conjugation yield [1] [%],other results
Glycylglycyl-L-phenylalanyl-N-[(carboxymethoxy)methyl]glycinamide,–,step yield [1]: 82%
"N-[6-(2,5-Dioxo-2,5-dihydro-1H-pyrrol-1-yl)hexanoyl]glycylglycyl-L-phenylalanyl-N-[(carboxymethoxy)methyl]glycinamide",–,step yield [1]: 71%
"N-(tert-Butoxycarbonyl)glycylglycyl-L-phenylalanyl-N-(4-{[(1S,9S)-9-ethyl-5-fluoro-9-hydroxy-4-methyl-10,13-dioxo-2,3,9,10,13,15-hexahydro-1H,12H-benzo[de]pyrano[3′,4′:6,7]indolizino[1,2-b]quinolin-1-yl]amino}-4-oxobutyl)glycinamide",73,–
"Glycylglycyl-L-phenylalanyl-N-[2-(2-{[(1S,9S)-9-ethyl-5-fluoro-9-hydroxy-4-methyl-10,13-dioxo-2,3,9,10,13,15-hexahydro-1H,12H-benzo[de]pyrano[3′,4′:6,7]indolizino[1,2-b]quinolin-1-yl]amino}-2-oxoethoxy)ethyl]glycinamide",–,step yield (trifluoroacetic acid salt): 92%
"N-[3-(2,5-Dioxo-2,5-dihydro-1H-pyrrol-1-yl)propanoyl]glycylglycyl-L-phenylalanylglycyl-N-[(1S,9S)-9-ethyl-5-fluoro-9-hydroxy-4-methyl-10,13-dioxo-2,3,9,10,13,15-hexahydro-1H,12H-benzo[de]pyrano[3′,4′:6,7]indolizino[1,2-b]quinolin-1-yl]-β-alanin",57,–
"N-(tert-Butoxycarbonyl)glycylglycyl-L-phenylalanylglycyl-N-[(1S,9S)-9-ethyl-5-fluoro-9-hydroxy-4-methyl-10,13-dioxo-2,3,9,10,13,15-hexahydro-1H,12H-benzo[de]pyrano[3′,4′:6,7]indolizino[1,2-b]quinolin-1-yl]-β-alaninamide",87,–
"N-[6-(2,5-Dioxo-2,5-dihydro-1H-pyrrol-1-yl)hexanoyl]glycylglycyl-L-phenylalanylglycyl-N-[(1S,9S)-9-ethyl-5-fluoro-9-hydroxy-4-methyl-10,13-dioxo-2,3,9,10,13,15-hexahydro-1H,12H-benzo[de]pyrano[3′,4′:6,7]indolizino[1,2-b]quinolin-1-yl]-β-alanina",21,–
"Glycylglycyl-L-phenylalanyl-N-(4-{[(1S,9S)-9-ethyl-5-fluoro-9-hydroxy-4-methyl-10,13-dioxo-2,3,9,10,13,15-hexahydro-1H,12H-benzo[de]pyrano[3′,4′:6,7]indolizino[1,2-b]quinolin-1-yl]amino}-4-oxobutyl)glycinamide",–,step yield (trifluoroacetate): 99%
"N-(tert-Butoxycarbonyl)glycylglycyl-L-phenylalanyl-N-[2-(2-{[(1S,9S)-9-ethyl-5-fluoro-9-hydroxy-4-methyl-10,13-dioxo-2,3,9,10,13,15-hexahydro-1H,12H-benzo[de]pyrano[3′,4′:6,7]indolizino[1,2-b]quinolin-1-yl]amino}-2-oxoethoxy)ethyl]glycinamide",95,–
"Glycylglycyl-L-phenylalanylglycyl-N-[(1S,9S)-9-ethyl-5-fluoro-9-hydroxy-4-methyl-10,13-dioxo-2,3,9,10,13,15-hexahydro-1H,12H-benzo[de]pyrano[3′,4′:6,7]indolizino[1,2-b]quinolin-1-yl]-β-alaninamide trifluoroacetate",–,step yield (trifluoroacetate): 92%
